Experimental data as given in EP3050886A1, “Fluorescent dyes and dye precursors” (Bürkert Werke GmbH, priority 2015, dated 2016).
At least one structure is not confirmed: it was looked up by name or label, or the drawing left a doubt.

How the values were obtained:
[1] = Fluorometric measurements / quantum yield; type: physicochemical; conditions: 0.1 M NaOH at pH 12.7
Description: Fluorometric measurements were made using fluorescence grade quartz cuvette and FluoroLog®-3 spectrofluorometer from Horiba Jobin Yvon equipped with sample stirring. The quantum yields (QY) of 5-CF, 5-COG, 5-POG and 5-PFA were measured with samples at 1 µM (absorbance 488 nm ≤ 0.2) in 0.1 M NaOH at pH 12.7. Every sample and the standard (fluorescein) was prepared freshly before use. In this study, fluorescein in 0.1 M NaOH at pH 12.7 was the reference system with a known quantum yield (Φ = 0.925).
Quantum yield measurements were done using standard absorption and emission spectrometers. Emission spectra range was between the wavelengths 498 - 600 nm and excitation wavelength was 488 nm for the samples and fluorescein. The refractive indices of the samples and fluorescein solutions were the same since they were prepared in the same buffer. Under these conditions, quantum yields were calculated by using the equation: Φ^i = (F^ifs/F^sfi)*Φ^s [formula]
wherein Φ^i and Φ^s are the photoluminescence QY of the sample and standard (fluorescein), respectively; F^i and F^s are the integrated intensities (areas) of sample and fluorescein spectra, respectively; and fi and fs are the absorption factor of the sample and fluorescein, respectively, with fi or s = 1-10^-Ai or s, wherein A = absorbance.
The same experiment was repeated three times (n = 3).

[2] = reference system with known quantum yield, 0.1 M NaOH at pH 12.7; cited from earlier work
[3] = Absorption spectra / extinction coefficients; type: physicochemical; conditions: fluorophores, 0.1 M NaOH solution at pH 12.7
Description: Absorption spectra were recorded in a 1-cm path length cuvette (Hellma, 104.002B-QS) on a SPECORD®-205 spectrometer from Analytik Jena.
The Extinction coefficients of the flourophores fluorescein, 5-carboxyfluorescein (5-CF), 5-carboxy Oregon Green™ (5-COG), 5-amido N-propyl Oregon Green (5-POG; Example 2) and 5-amido N-propyl fluorescein (5-PFA; Example 3) were measured in 0.1 M NaOH solution at pH 12.7.
The extinction coefficients of the pro-fluorophores 5-thiourea N-propyl fluorescein diacetate (5-PFDAT; Example 5), 5-propyl carboxylate fluorescein diacetate (5-PFDAE; Example 8), 5-amido N-propyl fluorescein diacetate (5-PFDA; Example 7), 5-carboxy Oregon Green diacetate (5-COGDA; Example 9), 5-amido N-propyl Oregon Green diacetate (5-POGDA; Example 6) and 5-amido N-propyl Oregon Green acetoxymethylester (5-POGAM; Example 10) were measured in PBS buffer containing 0.6 % glutaraldehyde at pH 7.

Question: Which λem [1] does the source give for `O=C1OC2(c3ccc(O)cc3Oc3cc(O)ccc32)c2ccccc21` [Fluorescein, fluorescein] here?
Answer: 512 ± 0.5 nm

Question: What about the λex [1] of the same compound?
Answer: 490 ± 0.3 nm

Question: What about the “Φ (quantum yield)” value [2] of the same compound?
Answer: 0.925

Question: And the “E (extinction coefficient)” value [3]?
Answer: 87458 ± 8271 M⁻¹ cm⁻¹

Question: What about the λAbs max [3] of the same compound?
Answer: 491 nm
